Results of single-concentration screens

Measurements from “University of Dundee, Small-Polar-MMV Screening Library” (2021), ChEMBL document CHEMBL3988442.

The filed quantity is “Percent Effect” (%).
How 0% and 100% were set is not recorded. Most values in the screen are low, and negative values occur.
Compounds were drawn at random from those tested, without regard to their results.
Two or more numbers in one place are separate tests of the same structure; such repeats can differ widely.

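Growth of Mycobacterium tuberculosis over 3 days (7H9 medium with glucose and tyloxapol); the read-out is not stated. Compounds at 50 µM. The record gives no direction; compounds that gave an IC50 in retests scored well above the rest, so higher reads as more growth inhibition. Of about 69,000 compounds tested this way, about 760 (1.1%) reached 50% or more in at least one test.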

{"smiles": "CC(=O)Nc1ccc(Oc2cc(C)nc(C3CCCNC3)c2)cc1.Cl", "stereo": "stereo not given", "effect": -15.55}
{"smiles": "Cn1cc(CN2CCCC(CCc3ccc(F)c(F)c3)C2)cn1", "stereo": "stereo not given", "effect": 1.601}
{"smiles": "Cc1cc(C(F)(F)F)nc(CCNC(C)Cn2cncn2)n1", "stereo": "stereo not given", "effect": -1.005}
{"smiles": "N#Cc1cc(F)ccc1NCC1CCS(=O)(=O)CC1", "effect": "-21.92 & 7.823"}
{"smiles": "[H][C@]12CC[C@]([H])(CN(C(=O)CCc3n[nH]c(C)c3C)C1)N(CCOC)C2=O", "effect": -25.84}
{"smiles": "COc1ccnc(N2Cc3cnc(C(C)(C)C)nc3C2)n1", "effect": 21.98}
{"smiles": "NC(=O)Cn1ccc(NC(=O)C2(c3cccc(F)c3)CCC2)n1", "effect": 9.856}
{"smiles": "CC(C)CC(CNC(=O)NCc1cc[nH]n1)N1CCOCC1", "stereo": "stereo not given", "effect": -3.259}
{"smiles": "Cc1nccc(N[C@H]2CN(C(=O)CN3CCOCC3)C[C@@H]2C(C)C)n1", "effect": 21.33}
{"smiles": "C1CN(c2nc(C3CC3)no2)CCN(C2CCOCC2)C1", "effect": "1.293 & -15.35"}
{"smiles": "COc1cc(C(=O)O)cc(I)c1OCC(=O)NCCc1ccccc1", "effect": 27.7}
{"smiles": "N#Cc1cnc2cc(F)cc(F)c2c1NC1CCN(CC(N)=O)CC1", "effect": "110.5 & -4.128"}
{"smiles": "Cc1cnn(CC2CCCCN2C(=O)c2ccc3c(c2)COC3)c1", "stereo": "stereo not given", "effect": -1.627}
{"smiles": "COC(=O)c1ccc(NC(C)c2ccc3c(c2)CCC(=O)N3)nn1", "stereo": "stereo not given", "effect": 11.36}
{"smiles": "Cc1cccc(CNC(=O)CC2CCN(Cc3ccccn3)CC2)n1", "effect": -10.17}
{"smiles": "CCNC(=O)C1CCCN(c2ccc3ccc(F)cc3n2)C1", "stereo": "stereo not given", "effect": 20}
{"smiles": "COCc1nc(C(=O)N2CCCC2c2ccc(OC)cc2)cs1", "stereo": "stereo not given", "effect": -12.3}
{"smiles": "Cc1cc(=O)[nH]c(SC(C)C(=O)N2CCC(NS(C)(=O)=O)CC2)n1", "stereo": "stereo not given", "effect": 70.28}
{"smiles": "CCCC(CNc1cc(C(C)C)nc2ccnn12)N(C)C", "stereo": "stereo not given", "effect": "11.53 & -4.012"}
{"smiles": "CCn1nc(C)c(CN(CCOC)C(=O)c2cnc(C)nc2O)c1C", "effect": -13.35}
{"smiles": "Cc1cc(C(F)(F)F)nc(N2CCN(Cc3nccn3C)CC2)n1", "effect": -34.7}
{"smiles": "O=C(c1csc(-c2ccc(C(F)(F)F)cc2)n1)N1CCCNCC1", "effect": 4.908}
{"smiles": "COc1ccc(-n2cc(CCO)cn2)cc1C(N)=O", "effect": 4.531}
{"smiles": "O=C(O)C(=O)O.c1csc(CN2CC(c3nc(-c4cnccn4)no3)C2)c1", "effect": "119.2 & 11.67"}
{"smiles": "CC(C)(C)c1noc(OCC(=O)NC2CCCC2)n1", "effect": "15.78 & -2.906"}
{"smiles": "O=C(O)C(F)(F)F.[H][C@@]12CCCO[C@]1([H])[C@H](NC(=O)CC1CC1)CN(c1ncccn1)C2", "effect": "5.675 & 1.747"}
{"smiles": "CC(=O)N1CCC(c2cc(C(F)(F)F)n3ccnc3n2)CC1", "effect": -14.13}
{"smiles": "CC(C)C(=O)NC1COC2(CCN(C(=O)c3cccnc3)CC2)C1", "stereo": "stereo not given", "effect": -14.71}
{"smiles": "CC(CO)NC(=O)Nc1ccc(S(C)(=O)=O)nc1", "stereo": "stereo not given", "effect": 18.84}
{"smiles": "O=C(c1cc(-c2ccco2)cs1)N1CCCC1", "effect": 66.55}
{"smiles": "COc1ccc(C(C)NS(=O)(=O)c2ccc3c(c2)CCC(=O)N3)cc1F", "stereo": "stereo not given", "effect": "-0.2548 & -5.426"}
{"smiles": "Cc1cccc(-c2nc(CN(Cc3cccs3)CC3CCCO3)no2)c1", "stereo": "stereo not given", "effect": -9.447}
{"smiles": "O=C(NC1CCCCC1)N1CCc2onc(COc3cccnc3)c2C1.O=C(O)C(F)(F)F", "effect": -34.52}
{"smiles": "CN(Cc1cccc(-n2cccn2)c1)c1cc(N2CCCC2)nc(N)n1", "effect": 9.943}
{"smiles": "COc1ccccc1N1CCCC(Nc2nccnc2C#N)C1", "stereo": "stereo not given", "effect": "3.904 & 33.25"}
{"smiles": "Cc1ccc2c(cnn2CCC(=O)NCc2csc(C)n2)c1", "effect": "12.86 & 4.667"}
{"smiles": "Cc1cnccc1NCCNC1CCSCC1", "effect": -0.581}
{"smiles": "Cc1nnsc1CNC(=O)Nc1cccc(N2CCN(C)C2=O)c1", "effect": "3.164 & -17.49"}
{"smiles": "CN1CC(c2ccccc2)CC12CCN(C(=O)c1ccc(F)cc1)CC2", "stereo": "stereo not given", "effect": -14.01}
{"smiles": "O=C(O)C(F)(F)F.O=C(O)C(F)(F)F.[H][C@@]12CCN(c3nncs3)[C@@]1([H])CCN2Cc1csc(C)n1", "effect": "11.28 & -7.148"}
{"smiles": "COCc1nc(C(=O)N2CCCC(n3nc(C)nc3C)C2)cs1", "stereo": "stereo not given", "effect": -38.16}
{"smiles": "CC(C)n1nc(CNc2ncccn2)c2c1CN(C1CCOCC1)CC2.O=C(O)C(F)(F)F", "effect": 0.5657}
{"smiles": "CCNc1ncc(CN(Cc2ccccc2)CC(C)CO)cn1", "stereo": "stereo not given", "effect": "6.055 & 4.735"}
{"smiles": "c1nc2c(c(NCCCn3cncn3)n1)CCN(CC1CCOC1)CC2", "stereo": "stereo not given", "effect": 21.55}
{"smiles": "Cc1ncc(CNCC(C)O)c2cc(C(=O)c3ccc(Br)cc3)oc12.Cl", "stereo": "stereo not given", "effect": 29.72}
{"smiles": "Cc1cc(C(=O)N2CCc3ncnc(-c4cnn(C)c4)c3CC2)c(C)o1", "effect": 8.978}
{"smiles": "[H][C@@]12CS(=O)(=O)C[C@]1([H])N(C(=O)c1ccc(Cl)cn1)CCN2CCC", "effect": 20.13}
{"smiles": "CN(CCNC(=O)c1scnc1Cl)c1ccccc1", "effect": 2.648}
{"smiles": "O=C(NCC1CC1)c1cc2c(s1)CCN2C(=O)c1cccnc1", "effect": -5.491}
{"smiles": "CCn1cc(S(=O)(=O)N2CCCCCC2c2cc(C)no2)cn1", "stereo": "stereo not given", "effect": 16.12}
{"smiles": "NC(=O)CCN(C(=O)c1cccc2c1OCO2)c1ccccc1", "effect": "6.412 & -0.007041"}
{"smiles": "O=C(CCCNC(=O)NCC1CCCO1)Nc1ccc(Cl)cc1", "stereo": "stereo not given", "effect": 17.87}
{"smiles": "Cc1cc(C)n(C2CN(CCC(=O)NCCc3ccccc3)C2)n1", "effect": 31.92}
{"smiles": "[H][C@@]12C[C@@H](OCc3cccnc3)CN1CCN(C(=O)c1ccsc1)C2", "effect": 13.61}

6 of the entries, repeated:

| SMILES | effect |
|---|---|
| `[H][C@@]12C[C@@H](OCc3cccnc3)CN1CCN(C(=O)c1ccsc1)C2` | 13.61 |
| `CCCC(CNc1cc(C(C)C)nc2ccnn12)N(C)C` (stereo not given) | 11.53 & -4.012 |
| `CC(C)(C)c1noc(OCC(=O)NC2CCCC2)n1` | 15.78 & -2.906 |
| `Cc1cccc(-c2nc(CN(Cc3cccs3)CC3CCCO3)no2)c1` (stereo not given) | -9.447 |
| `O=C(c1cc(-c2ccco2)cs1)N1CCCC1` | 66.55 |
| `Cc1cc(C(F)(F)F)nc(N2CCN(Cc3nccn3C)CC2)n1` | -34.7 |